The structures given here were assigned with low confidence; some may be wrong.

By UniProt entry, the sequences of proteins in these tests, tags left out. Residues count along the entry.
UniProt Q5S007, 970-2527 G2019S limits assumed: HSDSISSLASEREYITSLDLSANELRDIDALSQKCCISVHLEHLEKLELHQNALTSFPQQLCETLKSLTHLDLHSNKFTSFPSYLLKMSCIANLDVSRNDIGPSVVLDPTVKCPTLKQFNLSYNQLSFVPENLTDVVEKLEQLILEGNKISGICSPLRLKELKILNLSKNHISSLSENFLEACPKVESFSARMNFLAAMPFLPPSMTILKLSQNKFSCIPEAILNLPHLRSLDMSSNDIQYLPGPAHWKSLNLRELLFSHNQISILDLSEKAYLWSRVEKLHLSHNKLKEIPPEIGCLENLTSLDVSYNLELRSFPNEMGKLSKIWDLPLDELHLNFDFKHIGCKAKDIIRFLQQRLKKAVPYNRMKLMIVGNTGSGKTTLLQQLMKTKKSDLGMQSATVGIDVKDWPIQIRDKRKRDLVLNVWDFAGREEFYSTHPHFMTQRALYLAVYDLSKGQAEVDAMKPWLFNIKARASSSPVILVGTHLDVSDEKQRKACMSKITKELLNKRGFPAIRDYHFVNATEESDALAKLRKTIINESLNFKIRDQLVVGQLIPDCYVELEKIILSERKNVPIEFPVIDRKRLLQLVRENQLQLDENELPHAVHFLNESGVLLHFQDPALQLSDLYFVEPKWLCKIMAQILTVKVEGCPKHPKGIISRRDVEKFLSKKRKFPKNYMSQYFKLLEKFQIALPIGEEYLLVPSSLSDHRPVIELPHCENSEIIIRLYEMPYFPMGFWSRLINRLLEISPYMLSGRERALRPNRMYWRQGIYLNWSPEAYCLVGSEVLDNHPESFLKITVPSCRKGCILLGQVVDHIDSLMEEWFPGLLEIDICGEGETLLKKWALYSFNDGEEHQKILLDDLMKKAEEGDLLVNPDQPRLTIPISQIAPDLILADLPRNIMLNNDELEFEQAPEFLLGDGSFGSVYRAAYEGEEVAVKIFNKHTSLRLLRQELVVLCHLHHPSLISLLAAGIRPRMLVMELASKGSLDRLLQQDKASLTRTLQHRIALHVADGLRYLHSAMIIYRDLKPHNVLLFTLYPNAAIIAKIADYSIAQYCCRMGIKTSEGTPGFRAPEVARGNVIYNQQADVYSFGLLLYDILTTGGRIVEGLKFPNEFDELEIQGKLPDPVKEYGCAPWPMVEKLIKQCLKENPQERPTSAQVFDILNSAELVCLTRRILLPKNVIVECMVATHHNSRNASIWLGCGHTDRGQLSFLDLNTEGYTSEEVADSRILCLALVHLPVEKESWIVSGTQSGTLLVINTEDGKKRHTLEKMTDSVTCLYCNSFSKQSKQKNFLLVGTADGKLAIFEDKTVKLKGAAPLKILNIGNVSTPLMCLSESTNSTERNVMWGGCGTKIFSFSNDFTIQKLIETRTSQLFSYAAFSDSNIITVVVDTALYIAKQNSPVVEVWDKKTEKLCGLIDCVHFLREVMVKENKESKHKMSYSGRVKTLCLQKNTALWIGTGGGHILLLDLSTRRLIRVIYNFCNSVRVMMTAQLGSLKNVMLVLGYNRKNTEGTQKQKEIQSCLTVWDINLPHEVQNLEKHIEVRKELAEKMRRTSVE

This note sets out measurements from US8802674B2, “Aminopyrimidine derivatives as LRRK2 modulators” (Genentech, Inc., priority 2011, dated 2014).

In this assay the target is LRRK2 (Homo sapiens (Human), UniProt Q5S007, G2019S). Nature of the assay: In Vitro LRRK2 LabChip Assay. To be noted: read-out: LRRK2 Ki (KI); Table 6.

One may read the Ki as a measure of affinity in units of concentration, obtained from inhibition or displacement. Regarding `CNc1nc(Nc2ccc(C(=O)NC3CC(F)(F)C3)cc2OC)ncc1C(F)(F)F`, the Ki stood at 1.5 nM.
The result for `CNc1nc(Nc2ccc(C(=O)N3CC4CC3CO4)cc2OC)ncc1C(F)(F)F` (centres unmarked) reads 3.3 nM.
